Data reported in patent US20260125472A1.
Substitutions are numbered along the chain they refer to. Results are given in words; binding and its absence hold for the method and conditions named. Some entries that bind do so weakly or less than the wild type.

Amino acid sequences for entries named in this document (tags omitted). A change or cut given only in a name is not applied to a line headed by its entry.
UniProt P04234: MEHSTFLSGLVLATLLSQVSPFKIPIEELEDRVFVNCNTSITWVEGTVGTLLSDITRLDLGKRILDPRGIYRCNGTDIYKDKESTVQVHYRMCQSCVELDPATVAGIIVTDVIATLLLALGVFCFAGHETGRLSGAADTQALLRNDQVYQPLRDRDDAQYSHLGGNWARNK
UniProt P07766: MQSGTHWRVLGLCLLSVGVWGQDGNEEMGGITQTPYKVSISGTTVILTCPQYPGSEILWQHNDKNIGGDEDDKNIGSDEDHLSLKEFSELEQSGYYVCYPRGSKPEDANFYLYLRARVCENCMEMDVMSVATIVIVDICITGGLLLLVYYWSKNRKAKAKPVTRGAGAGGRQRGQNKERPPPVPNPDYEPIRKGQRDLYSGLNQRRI

B1: Cross309 (antibody, human IgG1, kappa, V domains shown)
VH: EVQLLESGGGLVQPGGSLKLSCAASGFTFNTYAMNWVRQAPGKGLEWVARIRSKYNNYATYYADSVKDRFTISRDDSKNTAYLQMNNLKTEDTAVYYCVRHGNFGNVYVSWFAYWGQGTLVTVSS
VL: ELVVTQEPSLTVSPGGTVTLTCRSSTGAVTTSNYANWVQQKPGQAPRGLIGGTNKRAPGTPARFSGSLLGGKAALTLSGVQPEDEAEYYCALWYSNLWVFGGGTKLTVLR
B2: Cross310 (antibody, human IgG1, kappa, V domains shown)
VH: B1 VH with V107Y
VL: B1 VL
B3: Cross311 (antibody, human IgG1, kappa, V domains shown)
VH: B1 VH with V107S, Y108E
VL: B1 VL
B4: Cross312 (antibody, human IgG1, kappa, V domains shown)
VH: B1 VH with V107S, V109H
VL: B1 VL
B5: Cross313 (antibody, human IgG1, kappa, V domains shown)
VH: B1 VH with V107S, V109Q
VL: B1 VL
B6: Cross314 (antibody, human IgG1, kappa, V domains shown)
VH: B1 VH with V107S, V109S
VL: B1 VL
B7: Cross316 (antibody, human IgG1, kappa, V domains shown)
VH: B1 VH with V107S, A113L
VL: B1 VL
B8: Cross317 (antibody, human IgG1, kappa, V domains shown)
VH: B1 VH with V107S, Y114G
VL: B1 VL
B9: Cross318 (antibody, human IgG1, kappa, V domains shown)
VH: B1 VH with V107S, Y114M
VL: B1 VL
B10: Cross303 (antibody, human IgG1, kappa, V domains shown)
VH: B1 VH with N103M, V107S
VL: B1 VL
B11: Cross307 (antibody, human IgG1, kappa, V domains shown)
VH: B1 VH with V107E
VL: B1 VL
B12: Cross308 (antibody, human IgG1, kappa, V domains shown)
VH: B1 VH with V107P
VL: B1 VL

Biological target: CD3E&D protein (UniProt P04234)
Assay: ELISA, CD3E&D coated on plate

binding, binds:
B1
B2
B3
B4
B5
B6
B7
B8
B9
B10
B11
B12

Biological target: CD3 on CD8 T cells (Homo sapiens (Human)) (UniProt P07766)
Assay: flow cytometry on CD8 T cells of PBMCs

binding, binds:
B1
B2
B3
B4
B5
B6
B7
B8
B9

Biological target: CD3E&D protein (UniProt P04234)
Assay: ELISA, coated CD3E&D protein, OD450 [panel A]

binding, binds:
B1
B2
B10
B11
B12

Biological target: CD3E&D protein (UniProt P04234)
Assay: ELISA, coated CD3E&D protein, OD450 [panel B]

binding, binds:
B3
B4
B5
B6
B7
B8
B9

Biological target: CD3 on CD8 T cells (Homo sapiens (Human)) (UniProt P07766)
Assay: flow cytometry, CD8 T cells in PBMCs, binding ratio % (A) and MFI (B) [panels A, B]

binding, binds:
B1
B2
B3
B4
B5
B6
B7
B8
B9
